For part of these data: Weaker means in comparison with the reference protein, sequence or condition of that experiment. For part of these data: The exact form of at least one protein or probe is not confirmed. For part of these data: A negative result means that nothing was seen under these conditions.
What was measured:
c-jun = assay: EMSA; conditions: protein translated in vitro; protein details: Promega TNT; label: 3'-end label (Klenow)
Nurr1 [1] = target: Nurr1 (UniProt Q06219); assay: activity in cells; conditions: single-copy luciferase reporter, L cells, protein in cells, protein details: RSV-LTR expression plasmid, only the site is given
NOR1 [2] = target: NOR1 (UniProt P51179); assay: activity in cells; conditions: single-copy luciferase reporter, L cells, protein in cells, protein details: RSV-LTR expression plasmid, only the site is given
Nur77 = Nur77 (UniProt P12813); assay: activity in cells; conditions: luciferase reporter, protein in cells, protein details: expression plasmid (pCMX or RSV-LTR), only the site is given
Nurr1 [3] = target: Nurr1 (UniProt Q06219); assay: binding assay; conditions: greater affinity than POMC Nur-RE; data not shown, method not stated
NOR1 [4] = target: NOR1 (UniProt P51179); assay: binding assay; conditions: greater affinity than POMC Nur-RE; data not shown, method not stated
[5] = stronger than NBRE, synergy with other Nur members

Sequences of proteins named here, by UniProt entry; tags and fusion partners are left off. A change or cut given only in a name is not applied to a line headed by its entry.
UniProt Q06219, whole entry: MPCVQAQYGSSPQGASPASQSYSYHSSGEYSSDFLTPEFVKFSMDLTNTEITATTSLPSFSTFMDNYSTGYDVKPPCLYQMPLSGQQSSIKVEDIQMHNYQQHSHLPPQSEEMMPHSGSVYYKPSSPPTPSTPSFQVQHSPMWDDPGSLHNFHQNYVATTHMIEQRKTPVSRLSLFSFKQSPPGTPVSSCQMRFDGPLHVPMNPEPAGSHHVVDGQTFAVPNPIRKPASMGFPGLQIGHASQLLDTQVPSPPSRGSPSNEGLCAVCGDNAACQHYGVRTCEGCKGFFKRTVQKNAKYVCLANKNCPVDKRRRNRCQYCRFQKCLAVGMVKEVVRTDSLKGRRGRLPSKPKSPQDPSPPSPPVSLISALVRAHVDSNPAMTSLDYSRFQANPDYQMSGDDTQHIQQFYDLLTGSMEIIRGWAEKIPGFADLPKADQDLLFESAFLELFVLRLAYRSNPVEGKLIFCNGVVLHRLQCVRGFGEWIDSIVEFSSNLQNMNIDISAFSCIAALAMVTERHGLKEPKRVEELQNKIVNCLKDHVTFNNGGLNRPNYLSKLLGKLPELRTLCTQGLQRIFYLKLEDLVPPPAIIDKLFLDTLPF
UniProt P51179: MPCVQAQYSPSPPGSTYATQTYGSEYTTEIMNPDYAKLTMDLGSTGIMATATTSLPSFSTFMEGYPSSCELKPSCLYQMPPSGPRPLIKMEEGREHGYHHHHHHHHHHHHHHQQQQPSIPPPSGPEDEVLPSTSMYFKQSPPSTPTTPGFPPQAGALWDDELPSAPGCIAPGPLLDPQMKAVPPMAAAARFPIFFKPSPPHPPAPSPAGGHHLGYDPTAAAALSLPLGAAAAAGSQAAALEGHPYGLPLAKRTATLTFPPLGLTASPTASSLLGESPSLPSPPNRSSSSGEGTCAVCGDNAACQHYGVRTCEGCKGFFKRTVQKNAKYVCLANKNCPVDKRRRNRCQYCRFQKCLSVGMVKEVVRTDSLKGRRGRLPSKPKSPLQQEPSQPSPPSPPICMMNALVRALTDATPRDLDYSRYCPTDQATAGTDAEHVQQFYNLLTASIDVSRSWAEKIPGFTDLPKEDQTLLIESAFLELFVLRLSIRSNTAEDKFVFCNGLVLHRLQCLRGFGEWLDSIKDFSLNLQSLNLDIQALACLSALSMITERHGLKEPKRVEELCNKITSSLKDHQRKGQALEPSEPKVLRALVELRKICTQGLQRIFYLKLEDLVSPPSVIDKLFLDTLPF
UniProt P12813, whole entry: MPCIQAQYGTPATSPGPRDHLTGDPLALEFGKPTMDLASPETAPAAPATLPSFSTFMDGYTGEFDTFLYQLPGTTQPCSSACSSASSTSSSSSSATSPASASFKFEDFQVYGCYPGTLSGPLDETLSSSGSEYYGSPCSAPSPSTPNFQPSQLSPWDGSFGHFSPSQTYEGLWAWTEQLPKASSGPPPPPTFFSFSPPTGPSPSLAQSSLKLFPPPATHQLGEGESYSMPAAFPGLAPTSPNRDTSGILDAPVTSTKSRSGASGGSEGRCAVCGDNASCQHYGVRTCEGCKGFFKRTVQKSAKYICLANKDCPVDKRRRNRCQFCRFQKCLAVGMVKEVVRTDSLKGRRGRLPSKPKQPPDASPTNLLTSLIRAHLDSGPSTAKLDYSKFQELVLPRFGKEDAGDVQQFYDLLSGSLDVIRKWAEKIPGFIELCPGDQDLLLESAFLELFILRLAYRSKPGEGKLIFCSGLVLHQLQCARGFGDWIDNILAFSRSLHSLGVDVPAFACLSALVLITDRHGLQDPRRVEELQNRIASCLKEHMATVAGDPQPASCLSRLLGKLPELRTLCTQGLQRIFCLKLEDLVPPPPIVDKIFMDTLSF

Sequence: GATCCTAGTGATATTTACCTCCAAATGCCAGGA (double strand) [NurRE (POMC)]
- binding result (c-jun): no binding
- activity on this sequence (Nurr1 [1]; [5]): active
- activity on this sequence (NOR1 [2]; [5]): active
- activity on this sequence (Nur77; AtT-20 and L cells, trimer at least 40 times more responsive than NBRE): active

Sequence: GATCCTCGTGCGAAAAGGTCAAGCGCTA (double strand) [NBRE]
- activity on this sequence (Nurr1 [1]; weaker activation than Nur-RE): less active
- activity on this sequence (NOR1 [2]; weaker activation than Nur-RE): less active
- activity on this sequence (Nur77; at least 40-fold less responsive than Nur-RE trimer in AtT-20): less active

Sequence: TGACCTTTATTCTCAAAGGTCA (double strand) [perfect palindromic Nur-RE]
- binding result (Nurr1 [3]): binds
- binding result (NOR1 [4]): binds
